Over roughly 33,000 sequences, “E-score (-0.5 to 0.5)” has its median near -0.0059; the highest 2% begin near 0.26. The list shows a part of the results.
Molecular target: T1, Cin5 (UniProt P40917)
T1 sequence: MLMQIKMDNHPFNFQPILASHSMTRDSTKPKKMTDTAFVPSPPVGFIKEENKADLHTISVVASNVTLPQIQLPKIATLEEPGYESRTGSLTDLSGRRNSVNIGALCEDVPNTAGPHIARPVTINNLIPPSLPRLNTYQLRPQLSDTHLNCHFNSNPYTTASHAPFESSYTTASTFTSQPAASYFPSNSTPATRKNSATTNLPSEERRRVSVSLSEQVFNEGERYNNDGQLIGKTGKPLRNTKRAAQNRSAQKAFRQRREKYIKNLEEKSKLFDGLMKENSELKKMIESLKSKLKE
Experiment: PBM E-score (8-mer binding enrichment) (E-score (-0.5 to 0.5)); higher = stronger / more preferred TF binding
Conditions: protein concentration: 100 nM; construct: GST-full length
Outline: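 Yeast transcription factors, full-length or as DNA-binding domains, were expressed with a GST tag using PURExpress in vitro transcription/translation. At about 100-200 nM they were applied to universal all-10-mer Agilent arrays, double-stranded by primer extension on fresh or once-stripped slides. Fluorescent anti-GST detected bound protein, and masliner normalised the scans. E-scores for ungapped eight-base words, pooled with reverse complements, came from the Universal PBM Analysis Suite.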

Sequence	PBM E-score
GCGCCACC	-0.183
ATTTCATC	0.183
CAGGAATC	0.0947
TATAATGA	0.21
GGTTCAAA	-0.0366
ATTAAGTG	0.156
CGCACCAG	-0.0346
AGAACCAG	-0.149
CGTATCCC	-0.115
GAGCTCCA	-0.092
AGCATCAC	0.0209
ATAATTAA	0.303
ACAAGTGT	-0.0377
ACATGGAG	-0.173
AAGACATT	-0.0512
GATCGGTA	0.12
ACGATCTG	-0.109
AGCAGGGC	-0.161
GCACCGCC	-0.171
GCATGAAA	0.0866
CTGGTATC	-0.0697
CGCCCTGA	0.043
ATAAACAC	-0.00689
GCCAAAAA	-0.014
TGGGACAA	0.0574

Sequence	PBM E-score
CGCCGATC	-0.0423
ACGAACAG	-0.126
ACATTCCT	-0.0761
CATCTCTA	0.121
AAGAACCG	0.0989
GACCGCAA	0.111
GCGGTTCA	-0.0752
GCAACCTA	-0.0779
CCAGCACG	-0.0764
CCCCCAAG	-0.367
AGCCGAAC	0.00618
CTCAGGAC	-0.00729
ACTTCTAT	0.0803
CCTCCAGG	-0.325
AACTACAT	0.122
CACAAACC	0.0346
ATGCACGA	0.0769
TAACCAAA	0.175
TGGGCCCA	0.0488
ACTAGGTA	0.0879
CCGACATA	0.0654
AAAAGGCT	-0.0964
TGACTAAA	-0.0431
CTAAATAC	0.085
CTTGATGA	0.214

Sequence	PBM E-score
ACCTGTCG	-0.0649
CGTCGAAG	-0.0709
CGAAGATC	-0.0401
CGTCCATC	-0.0657
AGTGGTAA	0.0989
ATTGAGAA	0.203
ACCGTCGA	-0.229
GGCGTAAA	0.017
AGAAATCC	-0.0149
AGGGATTA	0.0341
CGAAGAAG	0.061
GAACGGGA	-0.0917
ACCCAAGC	-0.209
AATCCGTC	0.152
ACTACCAC	0.017
CCTGAGCA	-0.0888
AGGATACA	-0.0837
CCTTGGAA	-0.0557
GTGGCGGA	-0.226
GACAAGGA	-0.109
CTAGTGCC	-0.168
AAACTCTT	-0.256
CAGCCACG	-0.122
ACAAGGCA	-0.0252
ACTACCTG	0.0858

Quoted from the listing.
For PBM E-score, CTAAATAC is entered as 0.085
For PBM E-score, CGCCCTGA is entered as 0.043
For PBM E-score, ACATGGAG is entered as -0.173

Later entries.

Sequence	PBM E-score
GAGTGGCA	-0.0399
AGTCTCAA	-0.166
GTACACAC	0.0505
CGTAATAG	0.223
TAGGTCAA	0.0917
ATAGTCTA	-0.0255
TCCGTCCA	0.0885
CCCCCATC	-0.318
CCTAATTA	0.0517
GTCCTTAA	0.11
AATCCGGC	0.0181
ACAAACAA	0.144
CTGCATCC	-0.0651
ATATATTC	0.248
CAGTCATC	-0.111
CCACCTGC	0.0307
CCTTTCTC	-0.1
CGTACCGA	-0.0821
CATAGAGG	-0.0883
AGCATTAT	0.177
GCGGGTAA	0.0106
GGCCGTAC	-0.0654
ACCCGAAA	0.0973
ACGAGGTC	0.00932
GGGTATTA	0.173

Random excerpt: 3 records from the list, in no set order.
Sequence	PBM E-score
GACAAGGA	-0.109
CTAGTGCC	-0.168
ACATTCCT	-0.0761

Following part.

Sequence	PBM E-score
CTCATTTC	-0.04
ATATGTGC	-0.00628
CGTGAACA	0.0134
AATTAGGC	0.164
ATTTGCCC	0.0256
ACTGGTAC	0.0272
ATACCGAG	-0.0821
CGTCATGA	0.164
ATAGCAGC	-0.206
AAATAAGT	0.12
ATACATAC	0.0724
ACCCTAGC	-0.0454
GTAGTGGA	0.113
CCCTCCTC	-0.262
ACCACTCG	0.0377
AGTCTTTG	-0.215
GGCCTTGA	-0.101
TCTTTCAA	-0.0045
CTTTGACC	0.0175
AATCTCTC	0.0151
ACGTACCA	0.0419
CGGATTCA	-0.0163
GCATCGGA	0.069
GCTGAGGA	-0.161
ACGGTTAG	-0.21

Sequence	PBM E-score
TAACAGCA	0.128
AACAGCAC	-0.0967
AATCCGAG	0.014
AGGAATGC	-0.064
AAGCTCTG	-0.18
GTTTAGTA	0.162
CTAAGCAA	0.076
ACGAATTG	-0.043
GAGCTTCA	0.0888
AGTTTCTG	0.0528
GTTTTGCA	0.0968
CGAACGAA	0.0963
AGCTCTCA	-0.0678
CCCAGTGC	-0.0746
GATCGAAC	-0.0729
GCGGTTAC	0.0688
CAAGTTTA	0.0995
ATACTCCC	-0.0138
AAGTAGTA	0.165
CGCGAATC	0.0184
ACCAAGAA	0.0753
TTCGAAAA	0.0825
ATTTAGCA	0.109
TAGCAGAA	0.0966
AGGATGAG	0.0326

Sequence	PBM E-score
ACGTGGAA	-0.00812
AGGGAGAC	-0.0805
CCTCTGGC	-0.225
GTTGCCCA	0.0544
AGCTTGTG	0.00797
GTGCTACA	-0.106
CTTGGCCC	-0.227
GGATCCCC	-0.266
CATCTGCA	0.0416
GTAATCCA	0.281
AACGGAAG	0.18
CCGTTCAA	0.0867
AGAATCAA	0.102
CCGAAACC	-0.166
ACTCCATG	-0.138
CACGCTAG	-0.0393
GGGCTAAC	-0.224
AACTCATC	0.158
CGGCGTGC	-0.169
GCAGAGCC	-0.258
CTATTGCC	0.0119
AACACTGA	0.271
AAGCGGCG	-0.0619
GAGTGGGC	-0.121
AATTCTGC	0.084

Part of the list above in another layout.
Sequence | PBM E-score
AGGGAGAC | -0.0805
CCTCTGGC | -0.225

Going on with the list:

Sequence	PBM E-score
CACAACCA	0.115
TACATCAA	0.0545
AGATTTGG	-0.0986
CCGACTCG	-0.148
CACTTCGC	-0.134
GCCTGTAC	-0.0799
CCGGCTCG	-0.204
CGACGAGA	-0.00879
CATGAAAA	0.171
GGGAACCC	-0.0812
AAGTATCC	-0.0119
AACTGTAG	0.15
CGGACACG	-0.136
AAATACAA	0.183
CGGGGGTC	-0.417
GCCAGCGA	-0.213
AATAAGTC	-0.0024
AGACCACT	0.0688
AACTTATT	0.244
AACGGTTA	-0.119
ACACTAGC	-0.114
AACAGAGA	0.124
ATGGGGCC	-0.318
CTATGTTC	0.0326
CAATGAAG	0.0401

Sequence	PBM E-score
AATAGTAT	0.248
CCATCAAC	0.00401
TGCCCGAA	-0.00457
GAGAAGCC	-0.0341
ACGCCTTA	-0.164
CCACGGAA	0.109
GAAGTCGC	-0.016
GTATCCGA	-0.0305
GAGCTACC	-0.168
CCAATAAG	0.00457
GCTGTGCC	-0.0568
ACTTCCAT	0.017
GGGTCCTA	-0.153
CATTGACC	0.207
ATTTTCCA	0.15
CGACAACA	0.109
GGTCGCAC	-0.0457
CTTCATAA	0.191
CCACTAGG	-0.2
